Test results reported in publication PMC7199855, “GRAF2, WDR44, and MICAL1 mediate Rab8/10/11–dependent export of E-cadherin, MMP14, and CFTR ΔF508” (The Journal of Cell Biology, 2020).
Results are given in words; binding and its absence hold for the method and conditions named. Binding seen in cells or lysates may run through a third protein. Some results given as binding are weak or reduced against the parent protein; the word gives no strength. Sequences can lack the tags named with a protein.

Sequences of proteins named here, by UniProt entry; tags and fusion partners are left off. A change or cut given only in a name is not applied to a line headed by its entry.
UniProt P61007: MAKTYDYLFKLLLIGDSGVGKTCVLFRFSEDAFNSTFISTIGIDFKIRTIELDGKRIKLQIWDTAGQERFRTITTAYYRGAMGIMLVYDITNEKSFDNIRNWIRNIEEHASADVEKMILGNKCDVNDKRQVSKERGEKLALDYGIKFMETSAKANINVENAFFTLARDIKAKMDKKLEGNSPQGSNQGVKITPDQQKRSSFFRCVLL

Key:
Assay in all cases: co-IP; transfected 293T, IP with α-GFP and Protein G Sepharose; 20 mM Hepes pH 7.4, 150 mM NaCl, 2 mM EDTA, 1% IGEPAL CA-630; Western blot
GFP-Rab8a T22N (canine) = GFP-Rab8a T22N (canine) (UniProt P61007)
GRAF2-GFP (human) = biological target: T1, GRAF2-GFP (human) (UniProt A1A4S6)
T1 sequence: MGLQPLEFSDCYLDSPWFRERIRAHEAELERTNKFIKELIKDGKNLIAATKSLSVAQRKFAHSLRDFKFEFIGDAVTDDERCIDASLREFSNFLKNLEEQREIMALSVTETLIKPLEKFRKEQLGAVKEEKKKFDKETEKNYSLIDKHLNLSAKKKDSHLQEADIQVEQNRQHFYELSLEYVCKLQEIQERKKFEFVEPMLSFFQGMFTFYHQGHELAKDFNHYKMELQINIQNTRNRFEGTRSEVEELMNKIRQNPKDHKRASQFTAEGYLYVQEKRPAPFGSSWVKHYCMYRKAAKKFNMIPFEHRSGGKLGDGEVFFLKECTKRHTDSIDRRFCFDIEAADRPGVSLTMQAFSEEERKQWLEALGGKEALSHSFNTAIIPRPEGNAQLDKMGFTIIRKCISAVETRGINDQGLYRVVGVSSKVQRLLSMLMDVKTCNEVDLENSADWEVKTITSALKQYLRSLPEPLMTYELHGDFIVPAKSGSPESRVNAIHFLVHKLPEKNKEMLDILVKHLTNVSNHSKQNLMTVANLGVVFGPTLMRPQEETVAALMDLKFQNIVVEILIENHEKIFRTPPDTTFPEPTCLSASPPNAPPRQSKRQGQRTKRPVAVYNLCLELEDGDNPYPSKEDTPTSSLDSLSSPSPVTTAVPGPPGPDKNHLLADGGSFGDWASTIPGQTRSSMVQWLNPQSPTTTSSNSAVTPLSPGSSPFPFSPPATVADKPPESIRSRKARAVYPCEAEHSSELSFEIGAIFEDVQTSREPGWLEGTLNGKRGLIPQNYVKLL

GRAF1b-GFP (human) = biological target: T2, GRAF1b-GFP (human) (UniProt Q9UNA1)
T2 sequence: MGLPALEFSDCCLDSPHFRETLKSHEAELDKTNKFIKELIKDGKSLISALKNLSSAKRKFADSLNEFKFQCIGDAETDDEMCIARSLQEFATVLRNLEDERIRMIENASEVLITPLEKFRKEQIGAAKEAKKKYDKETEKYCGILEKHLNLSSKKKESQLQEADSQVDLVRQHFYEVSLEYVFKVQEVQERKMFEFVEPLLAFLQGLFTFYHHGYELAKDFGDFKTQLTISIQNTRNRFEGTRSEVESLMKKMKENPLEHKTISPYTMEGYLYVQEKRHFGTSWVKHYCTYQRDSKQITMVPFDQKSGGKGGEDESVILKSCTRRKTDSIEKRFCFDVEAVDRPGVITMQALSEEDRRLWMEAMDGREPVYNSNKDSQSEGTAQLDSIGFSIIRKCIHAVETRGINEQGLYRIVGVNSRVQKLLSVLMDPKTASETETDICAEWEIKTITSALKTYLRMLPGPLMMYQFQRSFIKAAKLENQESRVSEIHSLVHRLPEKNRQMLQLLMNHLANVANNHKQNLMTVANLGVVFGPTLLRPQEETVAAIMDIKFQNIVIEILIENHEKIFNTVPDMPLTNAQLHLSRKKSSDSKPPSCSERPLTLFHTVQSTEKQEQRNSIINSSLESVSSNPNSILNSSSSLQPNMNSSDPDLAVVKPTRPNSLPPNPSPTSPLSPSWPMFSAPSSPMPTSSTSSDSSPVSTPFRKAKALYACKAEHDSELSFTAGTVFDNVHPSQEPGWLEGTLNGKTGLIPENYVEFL

GFP-Rab8a Q67L (canine) = GFP-Rab8a Q67L (canine) (UniProt P61007)

binding (GFP-Rab8a T22N (canine)): no binding | binding (GRAF2-GFP (human)): binds | binding (GRAF1b-GFP (human)): binds | binding (GFP-Rab8a Q67L (canine)): binds
B1: myc-MICAL1 (protein, UniProt Q8TDZ2 1-1067)
chain: MASPTSTNPAHAHFESFLQAQLCQDVLSSFQELCGALGLEPGGGLPQYHKIKDQLNYWSAKSLWTKLDKRAGQPVYQQGRACTSTKCLVVGAGPCGLRVAVELALLGARVVLVEKRTKFSRHNVLHLWPFTIHDLRALGAKKFYGRFCTGTLDHISIRQLQLLLLKVALLLGVEIHWGVTFTGLQPPPRKGSGWRAQLQPNPPAQLANYEFDVLISAAGGKFVPEGFKVREMRGKLAIGITANFVNGRTVEETQVPEISGVARIYNQSFFQSLLKATGIDLENIVYYKDDTHYFVMTAKKQCLLRLGVLRQDWPDTNRLLGSANVVPEALQRFTRAAADFATHGKLGKLEFAQDAHGQPDVSAFDFTSMMRAESSARVQEKHGARLLLGLVGDCLVEPFWPLGTGVARGFLAAFDAAWMVKRWAEGAESLEVLAERESLYQLLSQTSPENMHRNVAQYGLDPATRYPNLNLRAVTPNQVRDLYDVLAKEPVQRNNDKTDTGMPATGSAGTQEELLRWCQEQTAGYPGVHVSDLSSSWADGLALCALVYRLQPGLLEPSELQGLGALEATAWALKVAENELGITPVVSAQAVVAGSDPLGLIAYLSHFHSAFKSMAHSPGPVSQASPGTSSAVLFLSKLQRTLQRSRAKENAEDAGGKKLRLEMEAETPSTEVPPDPEPGVPLTPPSQHQEAGAGDLCALCGEHLYVLERLCVNGHFFHRSCFRCHTCEATLWPGGYEQHPGDGHFYCLQHLPQTDHKAEGSDRGPESPELPTPSENSMPPGLSTPTASQEGAGPVPDPSQPTRRQIRLSSPERQRLSSLNLTPDPEMEPPPKPPRSCSALARHALESSFVGWGLPVQSPQALVAMEKEEKESPFSSEEEEEDVPLDSDVEQALQTFAKTSGTMNNYPTWRRTLLRRAKEEEMKRFCKAQTIQRRLNEIEAALRELEAEGVKLELALRRQSSSPEQQKKLWVGQLLQLVDKKNSLVAEEAELMITVQELNLEEKQWQLDQELRGYMNREENLKTAADRQAEDQVLRKLVDLVNQRDALIRFQEERRLSELALGTGAQG
